In paper PMC2731243, “Structure and Novel Functional Mechanism of Drosophila SNF in Sex-Lethal Splicing”:
No constants are given. Whether binding was seen depends on the method and setting. Some entries that bind do so weakly or less than the wild type.

Tests used:
[1] = biological target: Sans-fille (SNF), full-length (Drosophila melanogaster) (UniProt P43332); experiment: NMR (1H-15N HSQC of SNF at 0.4 mM and 2 mM); SNF raised from 0.4 mM to 2 mM; about half of the NH signals, mainly of RRM1, disappeared; data not shown; 50 mM PBS, pH 7.2, 298 K; both purified
[2] = biological target: Sans-fille (SNF), full-length (Drosophila melanogaster) (UniProt P43332); experiment: NMR (1H-15N HSQC of SNF at different concentrations); SNF at 0.035-0.39 mM; concentration-dependent line broadening of NH cross-peaks; 50 mM PBS, pH 7.2, 298 K; both purified

binding [1]: binds | binding [2]: binds
B1: Sans-fille (SNF), full-length (protein, UniProt P43332 1-216)
chain: MEMLPNQTIYINNLNEKIKKEELKKSLYAIFSQFGQILDIVALKTLKMRGQAFVIFKEIGSASNALRTMQGFPFYDKPMQIAYSKSDSDIVAKIKGTFKERPKKVKPPKPAPGTDEKKDKKKKPSSAENSNPNAQTEQPPNQILFLTNLPEETNEMMLSMLFNQFPGFKEVRLVPNRHDIAFVEFTTELQSNAAKEALQGFKITPTHAMKITFAKK
